## Primary screen of a compound library

From ChEMBL document CHEMBL3988442, “University of Dundee, Small-Polar-MMV Screening Library” (2021).

Values are the deposited “Percent Effect”, in %. The controls that fix the scale are not given in the record; negative values are as filed. The compounds are a random part of those screened. Two or more numbers in one place are separate tests of the same structure; such repeats can differ widely.

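Viability assay of Plasmodium falciparum sporozoites; the read-out is not stated. The concentration is filed as 10 mM, unlikely as a test dose, so the dose is not known. Higher reads as lower viability (inferred: compounds with an IC50 in retests scored well above the rest). Strong results were mostly tested again. Of about 34,000 compounds tested this way, about 280 (0.84%) reached 50% or more in at least one test.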

Compound | percent effect
O=C(O)C(F)(F)F.O=C(O)C(F)(F)F.[H][C@@]12COC[C@]1(COCc1ccncc1)CN(Cc1cccc(OC)c1)C2 | -4.8%
Cc1nc(C(=O)N2CCOC(c3nc(C(C)C)n[nH]3)C2)c[nH]1 (stereo not drawn) | -13.73%
CCCc1n[nH]c(C2CN(CCCS(C)(=O)=O)CCO2)n1 (stereo not drawn) | -19.57%
O=C(CSc1nc2c(cnn2CCO)c(=O)[nH]1)N1CCCCCC1 | 2.007%
Cc1cn2nc(N3CCN(Cc4cc(C)on4)CC3)sc2n1 | 0.8748%
O=C(Nc1ccc(N2CCCC2)nc1)N1CCc2sccc2C1 | -10.47% and -0.9103% and 2.706%
O=C(O)C(F)(F)F.O=C(O)C(F)(F)F.[H][C@@]12CN(Cc3cccs3)CCC[C@]1(C(=O)OCC)CN(CC(C)C)C2 | 4.195%
O=C(CN1CCOC(Cn2cccn2)C1)NCc1ccccn1 (stereo not drawn) | -2.961%
CCc1[nH]ncc1C(=O)N1CCCC(n2cc(C)cn2)C1 (stereo not drawn) | 20.62%
Cc1ccc(C(=O)NS(=O)(=O)c2c(Cl)cccc2Cl)c(=O)[nH]1 | 2.913%
CC1CN(C)CCN1CC(=O)NCCOc1ccc2c(c1)OCO2 (stereo not drawn) | -17.61%
CCc1nc(C2CCCN(C(=O)c3cc(C(C)C)[nH]n3)C2)no1 (stereo not drawn) | 2.022% and 7.889% and 9.079%
CN(C)c1cc(C2CCCN(Cc3cnn(C)c3)C2)ccn1 (stereo not drawn) | -4.75%
COc1cccc(CNCc2c(C(C)C)nn(C)c2N(C)C)c1OC | 15.33%
O=C(O)c1cccc(CN2CCC(c3ccnc4ccnn34)CC2)c1 | 0.9037%
CS(=O)(=O)c1cccc(C(N)c2ccc(F)cc2)c1 (stereo not drawn) | 11.21%
CC(=O)N1CCOCC2(CN(Cc3ccccn3)CCO2)C1.O=C(O)C(F)(F)F.O=C(O)C(F)(F)F (stereo not drawn) | -4.004%
Cc1occc1C(=O)Nc1ccnc(OC2CCOC2)c1 (stereo not drawn) | -6.943%
CCC(CC)C(O)CNC(=O)Nc1cc(C)nn1C (stereo not drawn) | 5.016%
Cc1cc(C(=O)N[C@@H]2CCC[C@@H](N3CCOCC3)[C@@H]2O)no1 | 7.233%
CN1CCOC(CN(C(=O)Cc2ccccc2F)c2nccs2)C1 (stereo not drawn) | -0.4177%
Fc1ccc(-c2nc(CN3CCn4c(nnc4C4CC4)C3)co2)cc1 | 1.249%
CCc1ccc2ncn(Cc3ncc[nH]3)c(=O)c2c1 | 9.311%
CS(=O)(=O)N1CCCC(c2cncc(Nc3ccccn3)n2)C1 (stereo not drawn) | -3.464%
Cl.O=C1NC2(CCNCC2)CC1c1ccccc1 (stereo not drawn) | 9.288%
OCC(O)CSCc1cn(-c2ccc(Cl)cc2)nn1 (stereo not drawn) | 18.58%
CCCc1cc(C(=O)N2CCCC2c2cccnc2)[nH]n1 (stereo not drawn) | -5.717%
Cc1cc2ncn(C(=O)N3CCCC3)c2cc1C | -20.67%
CN(C)CC(=O)N1CCC2(CC1)CN(c1ncccn1)CCO2.O=C(O)C(F)(F)F | -3.559%
COc1cccc(OCC2CCCN(C(=O)CCn3ccnc3)C2)c1 (stereo not drawn) | -16.43% and -13.8%
Cc1cccc(OCCC(=O)N2CCCN(C(N)=O)CC2)c1C | -2.714%
c1ccc(C2CCCN2Cc2nnnn2C2CC2)cc1 (stereo not drawn) | 9.183%
Cn1ncc(CN2CCc3onc(-c4cccc(F)c4)c3C2)c1C1CC1 | -12.77%
CC(C)CN1CCc2c(CN(C)Cc3ccco3)cncc2C1.Cl.Cl.Cl | 2.024%
CC(C)S(=O)(=O)NCC1CCCN(C(=O)c2cccnc2)C1 (stereo not drawn) | 5.19% and 7.672% and -5.785%
CCc1nc(CN(C)C2CCN(CC(F)(F)F)C2)no1 (stereo not drawn) | 8.346%
CCc1nc(CN(C(C)=O)C2CCN(CCc3ccccc3)C2)no1 (stereo not drawn) | 10.09%
O=C(CN1CCC(c2ccnn2CCO)CC1)NCC1CC1 | 11.76%
Cc1cc(-c2nn(C)c(Cl)c2CN2CCC3(CC2)[C@H](O)C[C@@H]3O)no1 | -20.62%
c1ccc(-n2ccc(CN3CCOC(Cn4cncn4)C3)n2)cc1 (stereo not drawn) | -4.634%
CC(C)CN1CCN(C)C2(CCN(Cc3ccsc3)CC2)C1=O.O=C(O)C(F)(F)F.O=C(O)C(F)(F)F | 7.126%
CCc1nc(C2CCCN(C(=O)c3ccc(F)cc3)C2)no1 (stereo not drawn) | -11.65% and 5.68% and -0.4584%
Nc1nc(C2CCN(C(=O)c3cscn3)CC2)cs1 | -10.73%
[H][C@]12CCN(C(=O)NCc3ccccc3C)CC[C@@]1([H])S(=O)(=O)N(C)C2 | 9.581%
O=C1N(Cc2cccnc2)CCC12CCCNC2 (stereo not drawn) | 10.13%
Cc1c(C)n(Cc2ccccn2)c2nc3c(c(N)c12)CCCC3 | -2.851%
O=C(NCCN1CCCC1)c1cc2c(s1)CCN2c1ncccn1 | 1.051%
CC(C(=O)N1CCCN(c2ncccc2C#N)CC1)n1ccnc1 (stereo not drawn) | 9.535%
CC(C)CC(=O)NC[C@H]1CC[C@H](C(c2ccccn2)N(C)C)CC1 (stereo partly drawn) | -1.744%
O=C(CC1CCCC1)N1CCOC(c2nc(-c3ncccn3)no2)C1 (stereo not drawn) | -13.35%
[H][C@]12CC[C@]([H])(CN(S(=O)(=O)c3ccccc3)C1)N(Cc1cscn1)C2=O | -3.274%
COc1c(CNCCNC(=O)c2cccs2)c(C)nn1C | 21.03%
O=C(NCCCN1CCCCC1)c1ccc(-n2ccc3ccccc32)s1 | 0.7821%
Cn1ccnc1C(=O)NCc1cnc2n1CCN(CC1CC1)CC2.O=C(O)C(F)(F)F.O=C(O)C(F)(F)F | 3.421%
O=C(CCc1nc2ccccc2[nH]1)N1CCCC(n2cccn2)C1 (stereo not drawn) | 6.653%
CCCOc1ccccc1CN[C@@H]1CCC[C@H]1Cc1cc(C)no1.O=C(O)CC(O)(CC(=O)O)C(=O)O | -3.013%
COc1ccc2[nH]c(C(=O)NCC3(N)CCCC3)cc2c1 | -12.75%
O=C(CCS(=O)(=O)c1ccccc1)N1CCCC(n2cccn2)C1 (stereo not drawn) | -8.64%
CCC(NC(=O)C1CC1)c1ccccc1OCC(=O)N1CCCC1 (stereo not drawn) | 9.876% and 4.917% and 1.037%
COCc1nc(CN2CCOC(CN(C)c3cccnn3)C2)cs1 (stereo not drawn) | 0.223%
CCn1cc(C(=O)N(C)[C@@H]2CC[C@@H](N3CCCC3)[C@@H]2O)c(C)n1 | 3.571%
O=C1CC(c2ccncc2)C2(CCN(CCO)CC2)N1 (stereo not drawn) | -17.56%

For reference, 8 entries once more:

Result for COCc1nc(CN2CCOC(CN(C)c3cccnn3)C2)cs1 (stereo not drawn) was 0.223%.
Result for CCc1nc(CN(C(C)=O)C2CCN(CCc3ccccc3)C2)no1 (stereo not drawn) was 10.09%.
Result for COc1cccc(OCC2CCCN(C(=O)CCn3ccnc3)C2)c1 (stereo not drawn) was -16.43% and -13.8%.
Result for O=C(CCc1nc2ccccc2[nH]1)N1CCCC(n2cccn2)C1 (stereo not drawn) was 6.653%.
Result for O=C(CCS(=O)(=O)c1ccccc1)N1CCCC(n2cccn2)C1 (stereo not drawn) was -8.64%.
Result for OCC(O)CSCc1cn(-c2ccc(Cl)cc2)nn1 (stereo not drawn) was 18.58%.
Result for O=C(NCCN1CCCC1)c1cc2c(s1)CCN2c1ncccn1 was 1.051%.
Result for Cn1ncc(CN2CCc3onc(-c4cccc(F)c4)c3C2)c1C1CC1 was -12.77%.